1 molecule from patent US20040175375A1 (SEOUL NATIONAL UNIVERSITY INDUSTRY FOUNDATION, published 2004) can be followed below.

These are yes or no findings as the source states them, for the method shown. In cells and extracts the contact can be indirect. Sequences can lack the tags named with a protein.

The target in the assay is PI3K. Put plainly: co-immunoprecipitation from HCT116 cells, western blot. (In western blotting, separated proteins are transferred to a membrane and probed.)

B1: HA-(p38/JTV-1) (protein, not shown: small tags and cut ends)
chain: MPMYQVKPYHGGGAPLRVELPTCMYRLPNVHGRSYGPAPGAGHVQEESNLSLQALESRQDDILKRLYELKAAVDGLSKMIQTPDADLDVTNIIQADEPTTLTTNALDLNSVLGKDYGALKDIVINANPASPPLSLLVLHRLLCEHFRVLSTVHTHSSVKSVPENLLKCFGEQNKKQPRQDYQLGFTLIWKNVPKTQMKFSIQTMCPIEGEGNIARFLFSLFGQKHNAVNATLIDSWVDIAIFQLKEGSSKEKAAVFRSMNSALGKSPWLAGNELTVADVVLWSVLQQIGGCSVTVPANVQRWMRSCENLAPF
Turning to B1, the binding result is on record as “no binding”.
